The values that follow come from patent US20250340607A1 (UNIVERSITY OF CHICAGO, published 2025).

The target in the test is T1, murine Flt3 (R&D 768-F3-050) (murine, UniProt Q00342 28-544).
T1 construct: Bought recombinant protein coated on the ELISA plate; also called receptor for Flt3L; recombinant CD135
T1 sequence (looked up): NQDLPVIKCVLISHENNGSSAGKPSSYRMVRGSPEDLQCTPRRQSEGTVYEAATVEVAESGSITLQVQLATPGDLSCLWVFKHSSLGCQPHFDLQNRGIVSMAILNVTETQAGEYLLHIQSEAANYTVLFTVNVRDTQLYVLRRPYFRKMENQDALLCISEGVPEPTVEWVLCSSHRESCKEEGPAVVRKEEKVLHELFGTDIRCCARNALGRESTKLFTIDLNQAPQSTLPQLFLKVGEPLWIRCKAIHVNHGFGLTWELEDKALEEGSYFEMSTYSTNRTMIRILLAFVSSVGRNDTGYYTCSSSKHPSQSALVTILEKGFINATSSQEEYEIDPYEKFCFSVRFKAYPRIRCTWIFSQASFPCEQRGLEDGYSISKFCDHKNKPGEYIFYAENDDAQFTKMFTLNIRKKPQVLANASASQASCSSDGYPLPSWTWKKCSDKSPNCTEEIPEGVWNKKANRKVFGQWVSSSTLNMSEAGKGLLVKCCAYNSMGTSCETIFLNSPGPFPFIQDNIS
In words: CD135 binding ELISA: plate coated with 10 nM recombinant CD135. For orientation: ELISA stands for enzyme-linked immunosorbent assay.

No constants are given. Whether binding was seen depends on the method and setting. Some binding calls cover weakened binding; strength is not graded here. Where a sequence is shown, tags or fusion partners need not be part of it.

B1: Flt3L fused to Mouse Serum Albumin (Flt3L-MSA) (other)
chain: MTPDCYFSHSPISSNFKVKFRELTDHLLKDYPVTVAVNLQDEKHCKALWSLFLAQRWIEQLKTVAGSKMQTLLEDVNTEIHFVTSCTFQPLPECLRFVQTNISHLLKDTCTQLLALKPCIGKACQNFSRCLEVQCQPDSSTLLPPRSPIALEATELPEPRPRQGGGGSGGGGSEAHKSEIAHRYNDLGEQHFKGLVLIAFSQYLQKCSYDEHAKLVQEVTDFAKTCVADESAANCDKSLHTLFGDKLCAIPNLRENYGELADCCTKQEPERNECFLQHKDDNPSLPPFERPEAEAMCTSFKENPTTFMGHYLHEVARRHPYFYAPELLYYAEQYNEILTQCCAEADKESCLTPKLDGVKEKALVSSVRQRMKCSSMQKFGERAFKAWAVARLSQTFPNADFAEITKLATDLTKVNKECCHGDLLECADDRAELAKYMCENQATISSKLQTCCDKPLLKKAHCLSEVEHDTMPADLPAIAADFVEDQEVCKNYAEAKDVFLGTFLYEYSRRHPDYSVSLLLRLAKKYEATLEKCCAEANPPACYGTVLAEFQPLVEEPKNLVKTNCDLYEKLGEYGFQNAILVRYTQKAPQVSTPTLVEAARNLGRVGTKCCTLPEDQRLPCVEDYLSAILNRVCLLHEKTPVSEHVTKCCSGSLVERRPCFSALTVDETYVPKEFKAETFTFHSDICTLPEKEKQIKKQTALAELVKHKPKATAEQLKTVMDDFAQFLDTCCKAADKDTCFSTEGPNLVTRCKDALAHHHHHH
notes: also called MSA fused Flt3L; Flt3L-SA
Consider B1, for which the binding entry is listed as “binds”.
